Results taken from patent US20100143920A1, “Surfactant Protein D is a Biomarker for Steroid Responsiveness in Asthma and Chronic Obstructive Pulmonary Disease” (The Trustees of the University of Pennsylvania, priority 2007, published 2010).
At least one compound was matched to its structure with a doubt left.

System: SP-A
Test: Alveolar type II cell culture, Western blot for SP-A protein
Format: cell-based
Conditions: type II alveolar epithelial cells from adult rat lungs, cultured 4 days, dexamethasone 10 ng/ml

With `C[C@@H]1C[C@H]2[C@@H]3CCC4=CC(=O)C=C[C@]4(C)[C@@]3(F)[C@@H](O)C[C@]2(C)[C@@]1(O)C(=O)CO` [dexamethasone] the “protein expression of SP-A” value was “did not increase”.
